# Assay results reported in publication PMC9110524.
# These are yes or no findings as the source states them, for the method shown. In cells and extracts the contact can be indirect. Binding can be weak; no strength is given.
# Target: T1, nephrin (wild-type, human cDNA) (human) (UniProt O60500)
# T1 sequence: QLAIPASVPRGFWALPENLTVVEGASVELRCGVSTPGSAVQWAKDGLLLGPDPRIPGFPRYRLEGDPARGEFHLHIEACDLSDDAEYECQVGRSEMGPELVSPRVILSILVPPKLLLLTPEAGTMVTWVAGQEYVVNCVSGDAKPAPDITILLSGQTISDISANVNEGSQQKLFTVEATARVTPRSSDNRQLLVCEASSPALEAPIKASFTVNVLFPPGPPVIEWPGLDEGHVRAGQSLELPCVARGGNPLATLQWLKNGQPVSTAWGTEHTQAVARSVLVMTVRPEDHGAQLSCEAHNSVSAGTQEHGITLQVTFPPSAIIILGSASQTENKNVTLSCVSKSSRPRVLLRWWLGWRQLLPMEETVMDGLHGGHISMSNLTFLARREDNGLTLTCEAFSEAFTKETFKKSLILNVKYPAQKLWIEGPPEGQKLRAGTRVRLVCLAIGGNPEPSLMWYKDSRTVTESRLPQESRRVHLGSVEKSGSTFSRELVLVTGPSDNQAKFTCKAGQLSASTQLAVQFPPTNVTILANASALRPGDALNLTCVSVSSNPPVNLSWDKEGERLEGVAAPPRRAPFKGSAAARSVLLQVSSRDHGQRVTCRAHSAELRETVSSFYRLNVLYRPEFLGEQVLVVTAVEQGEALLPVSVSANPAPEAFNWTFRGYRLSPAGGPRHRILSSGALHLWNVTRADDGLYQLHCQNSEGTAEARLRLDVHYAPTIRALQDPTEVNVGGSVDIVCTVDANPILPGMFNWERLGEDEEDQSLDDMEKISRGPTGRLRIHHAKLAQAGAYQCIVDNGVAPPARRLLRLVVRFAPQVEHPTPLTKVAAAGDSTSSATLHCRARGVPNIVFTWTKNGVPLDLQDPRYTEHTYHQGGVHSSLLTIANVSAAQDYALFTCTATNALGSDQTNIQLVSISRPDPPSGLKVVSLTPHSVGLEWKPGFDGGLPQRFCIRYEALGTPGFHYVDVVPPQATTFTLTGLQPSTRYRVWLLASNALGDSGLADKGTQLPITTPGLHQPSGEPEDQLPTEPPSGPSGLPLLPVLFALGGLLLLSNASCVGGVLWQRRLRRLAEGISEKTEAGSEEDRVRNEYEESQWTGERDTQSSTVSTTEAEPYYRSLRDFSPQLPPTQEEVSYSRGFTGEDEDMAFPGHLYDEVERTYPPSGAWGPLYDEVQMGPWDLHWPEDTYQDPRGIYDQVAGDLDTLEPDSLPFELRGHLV
# Test: co-IP; HEK293T transfected with vector or nephrin; cells kept under normal (5.5 mM) or high (30 mM) glucose for 24 h; 1% Triton X-100 lysis buffer; nephrin immobilised, p38 MAPK detected by p38 antibody staining
substance,measurement,value
p38 mitogen-activated protein kinase (human (endogenous in HEK293T)) (enzyme),binding,binds
